Results are given in words; binding and its absence hold for the method and conditions named. In cells and extracts the contact can be indirect. Some results given as binding are weak or reduced against the parent protein; the word gives no strength.

Chains of the proteins cited; added tags and fusions are not shown.
UniProt Q16665: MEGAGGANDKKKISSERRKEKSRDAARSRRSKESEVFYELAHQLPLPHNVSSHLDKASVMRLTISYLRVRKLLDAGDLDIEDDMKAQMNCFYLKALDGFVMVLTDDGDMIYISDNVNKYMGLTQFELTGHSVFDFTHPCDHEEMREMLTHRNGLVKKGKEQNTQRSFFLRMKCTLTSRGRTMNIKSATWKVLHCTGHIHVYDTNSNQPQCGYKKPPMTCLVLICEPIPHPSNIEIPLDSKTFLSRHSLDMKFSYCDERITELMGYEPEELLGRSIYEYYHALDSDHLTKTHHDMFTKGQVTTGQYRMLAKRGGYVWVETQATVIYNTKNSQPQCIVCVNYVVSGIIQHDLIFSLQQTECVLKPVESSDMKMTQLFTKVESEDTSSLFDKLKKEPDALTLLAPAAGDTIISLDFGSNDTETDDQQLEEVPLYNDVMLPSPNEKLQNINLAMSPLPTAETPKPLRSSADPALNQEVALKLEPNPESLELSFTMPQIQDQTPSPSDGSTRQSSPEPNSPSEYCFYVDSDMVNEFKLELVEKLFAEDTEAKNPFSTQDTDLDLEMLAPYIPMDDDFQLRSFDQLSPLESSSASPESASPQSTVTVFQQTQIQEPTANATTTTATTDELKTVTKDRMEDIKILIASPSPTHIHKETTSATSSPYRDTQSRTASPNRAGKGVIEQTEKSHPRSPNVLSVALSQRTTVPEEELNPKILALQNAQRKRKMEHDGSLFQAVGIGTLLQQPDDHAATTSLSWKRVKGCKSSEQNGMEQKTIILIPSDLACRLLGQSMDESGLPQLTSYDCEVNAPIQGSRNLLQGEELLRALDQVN

This experiment has as its target Hypoxia-inducible factor-1α (HIF-1α), endogenous in HeLa cells (human (endogenous in HeLa)) (UniProt Q16665). The experiment can be described thus: co-IP; endogenous proteins; HeLa cells in hypoxic chamber and/or 5 uM MG132 for 6 h; total cell lysates in EBC200 buffer (50 mM Tris-HCl pH 8, 200 mM NaCl, 0.5% NP-40), antibody overnight at 4 °C, protein G/A-Sepharose, five washes in IP150 buffer, immunoblot. (In western blotting, separated proteins are transferred to a membrane and probed.)

B1: SET7/9 methyltransferase, endogenous in HeLa cells (enzyme, UniProt Q8WTS6 1-366)
chain: MDSDDEMVEEAVEGHLDDDGLPHGFCTVTYSSTDRFEGNFVHGEKNGRGKFFFFDGSTLEGYYVDDALQGQGVYTYEDGGVLQGTYVDGELNGPAQEYDTDGRLIFKGQYKDNIRHGVCWIYYPDGGSLVGEVNEDGEMTGEKIAYVYPDERTALYGKFIDGEMIEGKLATLMSTEEGRPHFELMPGNSVYHFDKSTSSCISTNALLPDPYESERVYVAESLISSAGEGLFSKVAVGPNTVMSFYNGVRITHQEVDSRDWALNGNTLSLDEETVIDVPEPYNHVSKYCASLGHKANHSFTPNCIYDMFVHPRFGPIKCIRTLRAVEADEELTVAYGYDHSPPGKSGPEAPEWYQVELKAFQATQQK
Consider B1, for which the binding entry was “binds”.
